# Assay results as given in the supplement of paper PMC8728848.
# Some of the results follow.
# B1: cFel (Cyprinus carpio), P68512 (protein)
# chain: LDCTVIDGNLKQIDAGSGSVVGVNNLNETFVLIDNVFTKISGSLKHFSVGPAGQLGVNTANNIFKYQSGGFVQLAGLLKQVDAGGDQIIAGVNMYDDIYCLNMDANNKWPSSNTPWVQINGKLKYYSCGPYSCWGVNSNDQIFIMKDVSSNVCSGSGSFINIPGLLSMIEVATDGSVFGVNSQGNLYQRTGVTRSKPDGTDWISMVACPNGHKHVSFDLGVLWLVCVDGSIRKCILTD
# Experiments:
# Experiment in all cases: glycan array binding signal (z-score within array); higher = stronger binding
# Conditions in all cases: glycan notation: IUPAC condensed, linker removed
# [1] = target: Neu5Ac(a2-3)Gal6S(b1-4)[Fuc(a1-3)]GlcNAc
# Summary of the method: (§1)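 Negative Z-scores can be read as non-binding. The Z-score is calculated within each array and then averaged across arrays of one protein sequence at different concentrations or buffers and across linkers. Arrays, 3228 in all, were curated from the Consortium for Functional Glycomics database and kept only where the protein sequence was available.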
# Neu5Ac(a2-3)GalNAc = target: Neu5Ac(a2-3)GalNAc
# Summary of the method: as §1
# [2] = target: Neu5Ac(a2-3)GalNAc(b1-4)GlcNAc
# Summary of the method: as §1
# [3] = target: Neu5Ac(a2-3)[GalNAc(b1-4)]Gal(b1-4)Glc
# Summary of the method: as §1
# [4] = target: Neu5Ac(a2-3)[GalNAc(b1-4)]Gal(b1-4)GlcNAc
# Summary of the method: as §1
# [5] = target: Neu5Ac(a2-3)[GalNAc(b1-4)]Gal(b1-4)GlcNAc(b1-3)GalNAc
# Summary of the method: as §1
# [6] = target: Neu5Ac(a2-3)[Neu5Ac(a2-6)]GalNAc
# Summary of the method: as §1
# Neu5Ac(a2-6)Gal = target: Neu5Ac(a2-6)Gal
# Summary of the method: as §1
# [7] = target: Neu5Ac(a2-6)Gal(b1-3)GlcNAc(b1-3)[Gal(b1-4)GlcNAc(b1-6)]Gal(b1-4)Glc
# Summary of the method: as §1
# Neu5Ac(a2-6)Gal(b1-4)Glc = target: Neu5Ac(a2-6)Gal(b1-4)Glc
# Summary of the method: as §1
# [8] = target: Neu5Ac(a2-6)Gal(b1-4)GlcNAc
# Summary of the method: as §1
# [9] = target: Neu5Ac(a2-6)Gal(b1-4)GlcNAc(b1-2)Man
# Summary of the method: as §1
# [10] = target: Neu5Ac(a2-6)Gal(b1-4)GlcNAc(b1-2)Man(a1-3)Man(b1-4)GlcNAc(b1-4)GlcNAc
# Summary of the method: as §1
# [11] = target: Neu5Ac(a2-6)Gal(b1-4)GlcNAc(b1-2)Man(a1-3)[Gal(b1-4)GlcNAc(b1-2)Man(a1-6)]Man(b1-4)GlcNAc(b1-4)GlcNAc
# Summary of the method: as §1
# [12] = target: Neu5Ac(a2-6)Gal(b1-4)GlcNAc(b1-2)Man(a1-3)[GlcNAc(b1-4)][Neu5Ac(a2-6)Gal(b1-4)GlcNAc(b1-2)Man(a1-6)]Man(b1-4)GlcNAc(b1-4)GlcNAc
# Summary of the method: as §1
# [13] = target: Neu5Ac(a2-6)Gal(b1-4)GlcNAc(b1-2)Man(a1-3)[Man(a1-6)]Man(b1-4)GlcNAc(b1-4)GlcNAc
# Summary of the method: as §1
# [14] = target: Neu5Ac(a2-6)Gal(b1-4)GlcNAc(b1-2)Man(a1-3)[Neu5Ac(a2-3)Gal(b1-4)GlcNAc(b1-2)Man(a1-6)]Man(b1-4)GlcNAc(b1-4)GlcNAc
# Summary of the method: as §1
# [15] = target: Neu5Ac(a2-6)Gal(b1-4)GlcNAc(b1-2)Man(a1-3)[Neu5Ac(a2-6)Gal(b1-4)GlcNAc(b1-2)Man(a1-6)]Man(b1-4)GlcNAc(b1-4)GlcNAc
# Summary of the method: as §1
# [16] = target: Neu5Ac(a2-6)Gal(b1-4)GlcNAc(b1-2)Man(a1-3)[Neu5Ac(a2-6)Gal(b1-4)GlcNAc(b1-2)Man(a1-6)]Man(b1-4)GlcNAc(b1-4)[Fuc(a1-6)]GlcNAc
# Summary of the method: as §1
# [17] = target: Neu5Ac(a2-6)Gal(b1-4)GlcNAc(b1-2)Man(a1-6)Man(b1-4)GlcNAc(b1-4)GlcNAc
# Summary of the method: as §1
# [18] = target: Neu5Ac(a2-6)Gal(b1-4)GlcNAc(b1-2)Man(a1-6)[Gal(b1-4)GlcNAc(b1-2)Man(a1-3)]Man(b1-4)GlcNAc(b1-4)GlcNAc
# Summary of the method: as §1
# [19] = target: Neu5Ac(a2-6)Gal(b1-4)GlcNAc(b1-2)Man(a1-6)[GlcNAc(b1-2)Man(a1-3)]Man(b1-4)GlcNAc(b1-4)GlcNAc
# Summary of the method: as §1
# [20] = target: Neu5Ac(a2-6)Gal(b1-4)GlcNAc(b1-2)Man(a1-6)[Man(a1-3)]Man(b1-4)GlcNAc(b1-4)GlcNAc
# Summary of the method: as §1
# [21] = target: Neu5Ac(a2-6)Gal(b1-4)GlcNAc(b1-2)[Neu5Ac(a2-6)Gal(b1-4)GlcNAc(b1-4)]Man(a1-3)[GlcNAc(b1-4)][Neu5Ac(a2-6)Gal(b1-4)GlcNAc(b1-2)[Neu5Ac(a2-6)Gal(b1-4)GlcNAc(b1-6)]Man(a1-6)]Man(b1-4)GlcNAc(b1-4)GlcNAc
# Summary of the method: as §1
# [22] = target: Neu5Ac(a2-6)Gal(b1-4)GlcNAc(b1-2)[Neu5Ac(a2-6)Gal(b1-4)GlcNAc(b1-4)]Man(a1-3)[GlcNAc(b1-4)][Neu5Ac(a2-6)Gal(b1-4)GlcNAc(b1-4)Man(a1-6)]Man(b1-4)GlcNAc(b1-4)GlcNAc
# Summary of the method: as §1
# [23] = target: Neu5Ac(a2-6)Gal(b1-4)GlcNAc(b1-2)[Neu5Ac(a2-6)Gal(b1-4)GlcNAc(b1-6)]Man(a1-6)[Neu5Ac(a2-6)Gal(b1-4)GlcNAc(b1-2)Man(a1-3)][GlcNAc(b1-4)]Man(b1-4)GlcNAc(b1-4)GlcNAc
# Summary of the method: as §1
# [24] = target: Neu5Ac(a2-6)Gal(b1-4)GlcNAc(b1-3)Gal(b1-3)GlcNAc
# Summary of the method: as §1
# [25] = target: Neu5Ac(a2-6)Gal(b1-4)GlcNAc(b1-3)Gal(b1-4)GlcNAc
# Summary of the method: as §1
# [26] = target: Neu5Ac(a2-6)Gal(b1-4)GlcNAc(b1-3)Gal(b1-4)GlcNAc(b1-2)Man(a1-3)[Neu5Ac(a2-6)Gal(b1-4)GlcNAc(b1-3)Gal(b1-4)GlcNAc(b1-2)Man(a1-6)]GalNAc
# Summary of the method: as §1
# [27] = target: Neu5Ac(a2-6)Gal(b1-4)GlcNAc(b1-3)Gal(b1-4)GlcNAc(b1-3)Gal(b1-4)GlcNAc
# Summary of the method: as §1
# [28] = target: Neu5Ac(a2-6)Gal(b1-4)GlcNAc(b1-3)Gal(b1-4)GlcNAc(b1-3)Gal(b1-4)GlcNAc(b1-2)Man(a1-3)[Neu5Ac(a2-6)Gal(b1-4)GlcNAc(b1-3)Gal(b1-4)GlcNAc(b1-3)Gal(b1-4)GlcNAc(b1-2)Man(a1-6)]GalNAc
# Summary of the method: as §1
# [29] = target: Neu5Ac(a2-6)Gal(b1-4)GlcNAc(b1-3)Gal(b1-4)GlcNAc(b1-3)GalNAc
# Summary of the method: as §1
# [30] = target: Neu5Ac(a2-6)Gal(b1-4)GlcNAc(b1-3)Gal(b1-4)GlcNAc(b1-3)[Neu5Ac(a2-6)Gal(b1-4)GlcNAc(b1-3)Gal(b1-4)GlcNAc(b1-6)]GalNAc
# Summary of the method: as §1
# [31] = target: Neu5Ac(a2-6)Gal(b1-4)GlcNAc(b1-3)Gal(b1-4)GlcNAc(b1-6)[Gal(b1-3)]GalNAc
# Summary of the method: as §1
# [32] = target: Neu5Ac(a2-6)Gal(b1-4)GlcNAc(b1-3)Gal(b1-4)[Fuc(a1-3)]GlcNAc(b1-3)Gal(b1-4)[Fuc(a1-3)]GlcNAc
# Summary of the method: as §1
# [33] = target: Neu5Ac(a2-6)Gal(b1-4)GlcNAc(b1-3)GalNAc
# Summary of the method: as §1
# [34] = target: Neu5Ac(a2-6)Gal(b1-4)GlcNAc(b1-3)[Neu5Ac(a2-6)Gal(b1-4)GlcNAc(b1-6)]GalNAc
# Summary of the method: as §1
# [35] = target: Neu5Ac(a2-6)Gal(b1-4)GlcNAc(b1-6)GalNAc
# Summary of the method: as §1
# [36] = target: Neu5Ac(a2-6)Gal(b1-4)GlcNAc(b1-6)[Gal(b1-3)GlcNAc(b1-3)]Gal(b1-4)Glc
# Summary of the method: as §1
# [37] = target: Neu5Ac(a2-6)Gal(b1-4)GlcNAc(b1-6)[Gal(b1-3)]GalNAc
# Summary of the method: as §1
# [38] = target: Neu5Ac(a2-6)Gal(b1-4)GlcNAc6S
# Summary of the method: as §1
# Neu5Ac(a2-6)GalNAc = target: Neu5Ac(a2-6)GalNAc
# Summary of the method: as §1
# [39] = target: Neu5Ac(a2-6)GalNAc(b1-4)GlcNAc
# Summary of the method: as §1
# [40] = target: Neu5Ac(a2-6)GalNAc(b1-4)GlcNAc6S
# Summary of the method: as §1
# [41] = target: Neu5Ac(a2-6)GlcNAc(b1-4)GlcNAc
# Summary of the method: as §1
binder,measurement,setting,value
B1,glycan array binding signal (z-score),[1],-0.444
same,glycan array binding signal (z-score),Neu5Ac(a2-3)GalNAc,-1.15
same,glycan array binding signal (z-score),[2],-1.23
same,glycan array binding signal (z-score),[3],-0.516
same,glycan array binding signal (z-score),[4],0.215
same,glycan array binding signal (z-score),[5],-0.199
same,glycan array binding signal (z-score),[6],-0.084
same,glycan array binding signal (z-score),Neu5Ac(a2-6)Gal,-0.997
same,glycan array binding signal (z-score),[7],0.399
same,glycan array binding signal (z-score),Neu5Ac(a2-6)Gal(b1-4)Glc,-0.293
same,glycan array binding signal (z-score),[8],-0.185
same,glycan array binding signal (z-score),[9],-0.345
same,glycan array binding signal (z-score),[10],0.167
same,glycan array binding signal (z-score),[11],0.403
same,glycan array binding signal (z-score),[12],1.4
same,glycan array binding signal (z-score),[13],-0.417
same,glycan array binding signal (z-score),[14],-0.624
same,glycan array binding signal (z-score),[15],1.08
same,glycan array binding signal (z-score),[16],0.618
same,glycan array binding signal (z-score),[17],0.879
same,glycan array binding signal (z-score),[18],2.07
same,glycan array binding signal (z-score),[19],-0.268
same,glycan array binding signal (z-score),[20],-0.759
same,glycan array binding signal (z-score),[21],-0.161
same,glycan array binding signal (z-score),[22],0.015
same,glycan array binding signal (z-score),[23],0.265
same,glycan array binding signal (z-score),[24],-0.253
same,glycan array binding signal (z-score),[25],1.98
same,glycan array binding signal (z-score),[26],-1.62
same,glycan array binding signal (z-score),[27],-1.19
same,glycan array binding signal (z-score),[28],0.546
same,glycan array binding signal (z-score),[29],-0.897
same,glycan array binding signal (z-score),[30],0.838
same,glycan array binding signal (z-score),[31],-0.507
same,glycan array binding signal (z-score),[32],0.134
same,glycan array binding signal (z-score),[33],-0.318
same,glycan array binding signal (z-score),[34],3.16
same,glycan array binding signal (z-score),[35],-0.757
same,glycan array binding signal (z-score),[36],-1.23
same,glycan array binding signal (z-score),[37],-0.673
same,glycan array binding signal (z-score),[38],-0.985
same,glycan array binding signal (z-score),Neu5Ac(a2-6)GalNAc,-1.14
same,glycan array binding signal (z-score),[39],-0.247
same,glycan array binding signal (z-score),[40],-0.918
same,glycan array binding signal (z-score),[41],0.562

# Another view of part of the listing above.
binder	measurement	setting	value
B1	glycan array binding signal (z-score)	[7]	0.399
same	glycan array binding signal (z-score)	Neu5Ac(a2-6)Gal(b1-4)Glc	-0.293
same	glycan array binding signal (z-score)	[8]	-0.185
same	glycan array binding signal (z-score)	[9]	-0.345
